Data published in patent EP0094586A2, “Glycerol derivatives, process for preparing same and pharmaceutical composition containing same” (ONO PHARMACEUTICAL CO., LTD., priority 1982, dated 1983).
At least one structure is not confirmed: it was looked up by name or label, or the drawing left a doubt.

Columns and labels:
[1] = target: phospholipase A2 obtained from lung of guinea-pig; assay: Inhibitory effect on phospholipase A2 (modified method of Shakir, 14C-arachidonyl phosphatidylcholine substrate); assay type: biochemical; conditions: enzyme from lung of guinea-pig; substrate L-B-[1-14C]-arachidonyl-a'-stearoyl-phosphatidylcholine
Method: (2) Inhibitory effect on phospholipase A
The activity of the enzyme was examined by modification of the method of Shakir by using L-B-[1-^14C]- arachidonyl-a'-stearoyl-phosphatidylcholine as substrate and phospholipase A2 obtained from lung of guinea-pig as enzyme [cf. Anal. Biochem., 114, 67 (1981)].
(§1) The evaluation is conducted using the concentration of compounds of the present invention required to produce a 50% inhibition of each effect, i.e. IC50.

[2] = target: phospholipase C obtained from lung of guinea-pig; assay: Inhibitory effect on phospholipase C (method of Rittenhouse-Simmons, 3H-labelled phosphatidyl-inositol substrate); assay type: biochemical; conditions: enzyme from lung of guinea-pig; substrate 3H-myoinositol labelled phosphatidyl-inositol from rat liver microsome
Method: (3) Inhibitory effect on phospholipase C
The activity of the enzyme was examined by the method of Rittenhouse-Simmons by using ^3H-myoinsitol labelled phosphatidyl-inositol biosynthesized in microsome of liver in rat as substrate and phospholipase C obtained from lung of guinea-pig as enzyme [cf. J. Clin. Invest., 63, 580 (1979)].
as §1

**Q.** Which IC50 [1] does the source give for `CCCCCCCCCCCCCCCCOCC(COC(=O)CCC[N+](C)(C)C)OCc1ccccc1` (racemic) [1 (v), (2RS)-1-0-hexadecyl-2-0-benzyl-3-0-[4-(N,N,N-trimethylammonio)-butyryl]glycerol halide] here?
**A.** Its IC50 is 120 µM.

**Q.** And the IC50 [2]?
**A.** The IC50 was 250 µM.

**Q.** With `CCCCCCCCCCCCCCCCOCC(COCCCC[N+](C)(C)C)SCC` (racemic) [12 (s), (2RS)-l-0-hexadecyl-2-ethylthio-3-0-[4-(N,N,N-trimethylammonio)-butyl]-1,3-propanediol halide] as the compound, how does the IC50 [1] read?
**A.** The IC50 was 200 µM.

**Q.** And the IC50 [2]?
**A.** Its IC50 is 200 µM.
